# From article PMC7819943, “Rice protein-binding microarrays: a tool to detect cis-acting elements near promoter regions in rice”
# The other results are listed elsewhere or left out.
# Target: T1, OsSMF1 (Oryza sativa, UniProt Q6ZLB0 1-436)
# T1 sequence: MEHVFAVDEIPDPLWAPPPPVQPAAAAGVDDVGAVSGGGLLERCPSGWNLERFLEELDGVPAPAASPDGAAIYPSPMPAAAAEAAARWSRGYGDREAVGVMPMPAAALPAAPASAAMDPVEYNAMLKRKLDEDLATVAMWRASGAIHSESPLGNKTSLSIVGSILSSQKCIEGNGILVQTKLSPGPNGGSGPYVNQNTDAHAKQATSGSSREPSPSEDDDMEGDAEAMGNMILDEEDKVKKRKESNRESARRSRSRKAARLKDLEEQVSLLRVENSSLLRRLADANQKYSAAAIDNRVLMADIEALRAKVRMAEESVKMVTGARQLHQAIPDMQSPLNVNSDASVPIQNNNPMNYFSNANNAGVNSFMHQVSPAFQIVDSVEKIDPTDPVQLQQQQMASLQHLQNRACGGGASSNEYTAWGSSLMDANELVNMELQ
# Test: protein-binding microarray (RPBM); PBS, 2% BSA, 51.3 ng/ul salmon testes DNA, 50 uM zinc acetate, 200 nM TF, 25 C, 1 h; high values mean tight binding
# Conditions: protein: recombinant; tags: N-terminal polyhistidine and DsRed monomer fusion (pET32a); chain copies: 2; label: CyDye5-dUTP incorporated in the synthesized complementary strand; 3' TTTTT single-stranded linker to array surface; dsDNA, one strand shown
# Method in brief: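 Binding signal here means per-feature fluorescence intensity in arbitrary units. The values were read on an Axon 4000B scanner after a custom Agilent array, double-stranded by primer extension with Cy5-dUTP, was incubated with 200 nM protein at 25 °C for 1 h in PBS with 2% BSA, salmon testes DNA and 50 µM zinc acetate, then washed. The proteins were transcription factors with an N-terminal polyhistidine tag and DsRed, expressed in E. coli BL21-CodonPlus and purified on Ni–NTA.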
row,Sequence,binding signal
1,ACTGAAGCTGGCGTACCTTATTGGTTTGTATTGCGTTGTTCGGAGTCACCTAGTGCAG,3380 fluorescence intensity (a.u.)
2,AATTTGGTGGGGTCGGGGTGGGTGCTTTAACTGGGGAGATCGGAGTCACCTAGTGCAG,3860 fluorescence intensity (a.u.)
3,CCAAACTAGTTCTTACTGGTTCTTATCGAAGACATGTTCACGGAGTCACCTAGTGCAG,3590 fluorescence intensity (a.u.)
4,ATCGCAATATACACGCAGGACGTGGACATCCTGTGGTTCCCGGAGTCACCTAGTGCAG,5910 fluorescence intensity (a.u.)
5,GCGTTTTGCTTTAAGATTGTGAAACGCCACGTGTCATTACCGGAGTCACCTAGTGCAG,23100 fluorescence intensity (a.u.)
6,CCCCTCCACATGGCGCGCCACACCCACGAGACCACCACGTCGGAGTCACCTAGTGCAG,3180 fluorescence intensity (a.u.)
7,TTTGAACAGCTCGAAATGCCACGTCAGGCATAGGCAAGTTCGGAGTCACCTAGTGCAG,23800 fluorescence intensity (a.u.)
8,TGTGTTCACGTCGGCGTACGTGTTTCATCGCAGTGTGCCCCGGAGTCACCTAGTGCAG,4260 fluorescence intensity (a.u.)
9,CACCATTGTCCCCTGCAAACTTCTAAGCAAAGCTCTATGACGGAGTCACCTAGTGCAG,14100 fluorescence intensity (a.u.)
10,TGGGGAGACCCAAAATTAACAAACATTCAAACAGAAAGGACGGAGTCACCTAGTGCAG,13300 fluorescence intensity (a.u.)
11,TAGCTTCTCGTCGACGCTTTTGCCTCCGTCTATATAAGACCGGAGTCACCTAGTGCAG,3140 fluorescence intensity (a.u.)
12,CCCAATTGCGTCGTCGTGTCAGCCTCCGACCGTCTCCCCGCGGAGTCACCTAGTGCAG,6920 fluorescence intensity (a.u.)
13,CAAATGTCCAATTGACGCACCACCTCGATCCGTACCGTCGCGGAGTCACCTAGTGCAG,3700 fluorescence intensity (a.u.)
14,TCAGCCACATCATCACCACTGAATTGCATGGAACCTTGCTCGGAGTCACCTAGTGCAG,11600 fluorescence intensity (a.u.)
15,GGAAGTCTGGTTGTGGTCTGTTGTTGGCACCGTAGGTTTTCGGAGTCACCTAGTGCAG,3690 fluorescence intensity (a.u.)
16,CTCTCCCAGCGGTAATGGAGGGCGGTTTTGCTGACGTGGCCGGAGTCACCTAGTGCAG,58300 fluorescence intensity (a.u.)
17,AATTGACTCATATACGGATGACGTACCAAAATACCGGCAACGGAGTCACCTAGTGCAG,6910 fluorescence intensity (a.u.)
18,CTTCATTTATCTCAAAATATAATAACCTACAATCAGATGTCGGAGTCACCTAGTGCAG,10100 fluorescence intensity (a.u.)
19,AGTAGCACTACTAGTTAATGACGTAATGACCAAGTACTCGCGGAGTCACCTAGTGCAG,3950 fluorescence intensity (a.u.)
20,TAGTAGAATTTCTCACATTGACACGCGGCAAAACAAATACCGGAGTCACCTAGTGCAG,4980 fluorescence intensity (a.u.)
21,TATGTAGTACCACCCTGGTGTCACACATGTACCACTTGGTCGGAGTCACCTAGTGCAG,3910 fluorescence intensity (a.u.)
22,AGACCACCTCATGAAGCAATTTCTAGGCAAATTCCAGTGACGGAGTCACCTAGTGCAG,32400 fluorescence intensity (a.u.)
23,GAAAAGATAAGGCCACGCATGTCGTAGTTGACGTAGGCCCCGGAGTCACCTAGTGCAG,4870 fluorescence intensity (a.u.)

# Look-ups from the entries so far.
# binding signal, CCCAATTGCGTCGTCGTGTCAGCCTCCGACCGTCTCCCCGCGGAGTCACCTAGTGCAG is entered as 6920 fluorescence intensity (a.u.)
# binding signal, TCAGCCACATCATCACCACTGAATTGCATGGAACCTTGCTCGGAGTCACCTAGTGCAG is entered as 11600 fluorescence intensity (a.u.)
